Measurements: patent publication US12151018B2 (priority 2019, dated 2024)
At least one compound was matched to its structure with a doubt left.

Tested on: Caenorhabditis elegans
Conditions: in vivo

SMILES | muscle contraction (inhibition) effect
C[C@@H]1O[C@@H](Oc2c(-c3ccc(O)c(O)c3)oc3cc(O)cc(O)c3c2=O)[C@H](O)[C@H](O)[C@H]1O [quercitrin] | confirmed
O=c1c(O[C@@H]2O[C@H](CO)[C@H](O)[C@H](O)[C@H]2O)c(-c2ccc(O)c(O)c2)oc2cc(O)cc(O)c12 [hyperoside] | incomplete
